Patent US8476029B2, “MCPP immunoassay” (priority 2009, dated 2013)
Converted amounts (≈) assume the structure as drawn.

How the values were obtained:
[1] = tested on: Trazodone antibody (antibody raised from the trazodone-derived immunogen); assay type: binding, sheep
Protocol: (§1) Trazodone and mCPP were coupled by way of a crosslinker to bovine thyroglobulin (Examples 7 and 12). The resulting immunogens were administered separately to adult sheep on a monthly basis to provide target-specific polyclonal antisera. IgG was extracted from the antisera via caprylic acid/ammonium sulphate precipitation of immunoglobulin. Microtitre plates (Thermo Scientific, 95029180) were coated with antibody (125 μl) in coating buffer (10 mM Tris pH 8.5) at 37° C. for 2 hours. Antibody raised from the mCPP-derived immunogen was coated at 2.5 μg/ml and antibody raised from the trazodone-derived immunogen was coated at 0.625 μg/ml. The plates were then washed. 50 μl of sample/standard (trazodone, Sigma T6154-1 g; mCPP, Alfa-Aesar L01772; nefazodone, Sigma N5536) was added to the appropriate wells in triplicate, followed by 75 μl of conjugate from Example 13 for the generic antibody, and 75 μl of conjugate from Example 8 for the trazodone-specific antibody) and incubated at 25° C. for 1 hour. The plates were then washed and 125 μl of TMB (Randox, 4380-15) was added to each well and left at room temperature for 20 minutes in the dark. The reaction was stopped using 125 μl of 0.2M sulphuric acid. The absorbances were then read at 450 nm with an ELISA microplate reader (BIO-TEK Instruments, EL340) and the means calculated. Antibody specificity and sensitivity were then determined. […]

[2] = tested on: Generic antibody (antibody raised from the mCPP-derived immunogen); assay type: binding, sheep
Protocol: as §1

In the case of `O=c1n(CCCN2CCN(c3cccc(Cl)c3)CC2)nc2ccccn12` [Trazodone, 2-(3-[4-(3-chlorophenyl)piperazin-1-yl]propyl)-[1,2,4]triazolo[4,3-α]pyridin-3(2H)-one], the “IC50 (standard concentration which produces 50% B/B0)” value [1] was 0.872 ng/mL (≈ 2.34 nM) and the “IC50 (standard concentration which produces 50% B/B0)” value [2] was 0.532 ng/mL (≈ 1.43 nM).
